From PMC4538836 come the findings set out here.

The exact form of at least one protein or probe is not confirmed. No signal at the amounts used counts as a negative. At least one verdict was read from the data and is not stated in words by the source.

For the series, the system named is ΔZnF LigIII + ΔOBD LigIII. As to the kind of experiment: TR-FRET. Particulars: 50:50 mixture, bridging read-out only, end type not stated; 50 mM HEPES-NaOH pH 7.5, 80 mM NaCl, 5 mM MgCl2, 1 mM DTT, 1 mM ATP, 50 ug/ml BSA; anisotropy 25 C (25 nM DNA), TR-FRET room temperature, pull-down 4 C; recombinant protein; protein details: N-terminal His (pET28a),C-terminal His (pET28a).

Consider “AGTGAATTCGAGCTCG / AATCGAGCTCGCAATTCACT / CATGATTACGG / ATTCCGTAATCATG [bridged pair, complementary 3-nt overhangs]”, for which the binding result is listed as “no binding”.
